Experimental findings from US5411942A (Carlbiotech Ltd. A/S, priority 1989, dated 1995) are described below.

This series can be described thus: general procedure: solution-phase peptide synthesis; DCC/HOSu; CPD-Y enzymatic coupling. The note with it: acetate (HAc).

Strings that start with PEPTIDE1 are HELM notation: dots part the residues, brackets hold end groups and non-standard residues.

Consider HCl, H-AsnGlyGlyValOBzl, for which the step yield (late stage modification step) was determined as 95%.

As to BocAsnGlyGlyValOBzl, the step yield (coupling step) turned out to be 70%.

As to “HAc,H-AsnGlyGlyValCys(Acm)/NH2 (NGGVC; Cys(Acm); C-terminal amide; acetate salt; printed: Asn-Gly-Gly-Val-Cys)”, where the note is “coupling step”, the “final HPLC purity” value is “at least 95% pure” and the step yield stood at 70%.

For the substance “PEPTIDE1{N.A.G.V.[Cys(Acm)].[am]}$$$$V2.0”, the “final HPLC purity” value (whole synthesis) was “mores than 95% pure”.

Where the note is “coupling step”, “PEPTIDE1{N.L.G.V.[Cys(Acm)].[am]}$$$$V2.0” had a step yield of 33%. Moreover, under “whole synthesis”, the “final HPLC purity” value is listed as “more than 95% pure”.
